Measured values as given in PubChem BioAssay AID2417 (National Center for Advancing Translational Sciences (NCATS), 2010).
The whole screen tested about 140,000 compounds, of which about 4,300 (3.1%) were called active. Inconclusive means that the source gave no clear call. Such entries were picked first, then a sample of the others.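 Rule for the calls: active = readout at or below -70, meaning at least 70% loss of cells showing the perinucleolar compartment, a nuclear body marking cancer cells; inconclusive = readout between -30 and a set limit; inactive = the rest.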

Experiment: High Content Assay for Compounds that inhibit the Assembly of the Perinucleolar Compartment;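 note: plate controls were DMSO wells for no effect and camptothecin positive control wells for full effect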
Details: PC3M PTB-GFP, PNC prevalence imaging, 16 h; at 10 µM; active compounds read low
How it was run: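 Compounds are pinned in duplicate onto adhered PC3M cells stably expressing GFP-tagged PTB and incubated 16 h at 37 C. Cells are then fixed, nuclei stained with Hoechst, and PNC-positive cells counted.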
With `C=CCSc1nccc(-c2nn(-c3ccc(C)cc3)ccc2=O)n1` the activity change (PNC), negative = inhibition was inconclusive: -50.6%. With `CCOC(=O)c1c(C)oc2c1c(C=NC1CCS(=O)(=O)C1)c(O)c1ccccc12` (stereo not given) the activity change (PNC), negative = inhibition was inactive: -28.7%. For `O=c1c2c(nc3cc(-c4ccccc4)[nH]n13)CCC2`, the activity change (PNC), negative = inhibition was inconclusive: -42.4%. In the case of `CC(=O)N(C)C1(c2nnnn2CCOC(=O)Nc2cccc3ccccc23)CCCC1`, the activity change (PNC), negative = inhibition was inconclusive: -50.8%. With `CCCC(C)NC(=S)NC(=O)c1cc(S(=O)(=O)N2CCOCC2)ccc1C` (stereo not given) the activity change (PNC), negative = inhibition was inconclusive: -54.4%. In the case of `Cc1ccc(CNC(=O)C2CCCCC2C(=O)O)cc1` (stereo not given), the activity change (PNC), negative = inhibition was inconclusive: -33%. In the case of `Cc1ccc(C(=O)C2Oc3ccccc3C3CC(c4ccc(C)cc4)=NN23)cc1` (stereo not given), the activity change (PNC), negative = inhibition was inconclusive: -36.6%. For `CNC(=S)N/N=C/c1c(Cl)cccc1Cl`, the activity change (PNC), negative = inhibition was inconclusive: -58.4%. In the case of `c1csc(-c2csc3ncnc(NCCCN4CCOCC4)c23)c1`, the activity change (PNC), negative = inhibition was inconclusive: -35.6%. With `Cc1cc(Br)c(S(=O)(=O)n2nnc3ccccc32)cc1C` the activity change (PNC), negative = inhibition was inconclusive: -78.9%. In the case of `CC1CCN(C(C(=O)Nc2ccc3c(c2)OCO3)c2ccccc2)CC1` (stereo not given), the activity change (PNC), negative = inhibition was inconclusive: -33.3%. For `O=C(CSc1nc2c(c(C(F)(F)F)n1)CCc1ccccc1-2)NCc1ccc(F)cc1`, the activity change (PNC), negative = inhibition was active: -119%. In the case of `Cn1c(=O)c2cc(S(=O)(=O)N3CCOCC3)ccc2n(C)c1=O`, the activity change (PNC), negative = inhibition was inactive: -27.3%. For `CCOC(=O)Cc1csc(NC(=O)NC2(C(F)(F)F)Oc3ccccc3O2)n1`, the activity change (PNC), negative = inhibition was inactive: -6.88%. With `O=C(CN1CCN(c2ccccc2F)CC1)N1N=CCC1c1ccccc1` (stereo not given) the activity change (PNC), negative = inhibition was inconclusive: -30%. With `O=C(OCCN1C(=O)c2cccc3c(N4CCOCC4)ccc(c23)C1=O)c1cccc(Cl)c1` the activity change (PNC), negative = inhibition was inconclusive: -41.3%. In the case of `NCCN1CCN(CCN)CC1`, the activity change (PNC), negative = inhibition was inconclusive: -30.9%. For `Cc1cc(C)nc(N2CCCC(C(=O)NCC(c3ccccc3)c3ccccc3)C2)n1` (stereo not given), the activity change (PNC), negative = inhibition was inactive: -5.01%. For `CCC1=NC(c2ccccc2Cl)N(O)C1(C)C` (stereo not given), the activity change (PNC), negative = inhibition was inactive: -19.3%. In the case of `Cc1ccc(CCNC(=O)C23CN(Cc4ccccc4)CC2C(c2ccc([N+](=O)[O-])cc2)=NO3)cc1` (stereo not given), the activity change (PNC), negative = inhibition was inconclusive: -40.4%. With `Cc1ccccc1NC(=S)NCc1ccc2c(c1)OCO2` the activity change (PNC), negative = inhibition was inactive: 36.2%. In the case of `Cc1ccc(N(CC(N)=O)C2SC(=O)N(Cc3ccccc3)C2=O)cc1` (stereo not given), the activity change (PNC), negative = inhibition was inconclusive: -45.7%. In the case of `CCCCNC(=O)/C(C#N)=C/c1ccc2c(c1)OCCO2`, the activity change (PNC), negative = inhibition was inactive: 1.61%. With `CCc1ccccc1N1CSC2=C(C#N)C(c3cc(OC)c(OC)cc3OC)CC(=O)N2C1` (stereo not given) the activity change (PNC), negative = inhibition was inactive: 10.7%. With `CCOC(=O)C(NC(=O)c1ccccc1)(N1CCCC1=O)C(F)(F)F` (stereo not given) the activity change (PNC), negative = inhibition was active: -84.9%. In the case of `COc1ccc(-n2c(-c3ccc(Br)cc3)c[n+]3c2CCc2ccccc2-3)cc1`, the activity change (PNC), negative = inhibition was active: -134%. In the case of `CC1=CC(C)(C)N(C(=O)CSc2nnc(N)s2)c2ccccc21`, the activity change (PNC), negative = inhibition was inactive: -11.6%. For `O=C(/C=C/c1ccc(Cl)cc1Cl)c1cccnc1`, the activity change (PNC), negative = inhibition was inconclusive: -57.2%. With `C=C(C)C1CCC(C)=C1COC(=O)Nc1ccccc1` (stereo not given) the activity change (PNC), negative = inhibition was inactive: -2.78%. For `Cc1cccc(CSc2ccc(-c3ccco3)nn2)c1`, the activity change (PNC), negative = inhibition was inconclusive: -49%. For `CCc1c(C)nc2[nH]nc(-c3ccccc3)n2c1=O`, the activity change (PNC), negative = inhibition was inconclusive: -63.2%. For `O=C(NN1CCOCC1)c1cc(S(=O)(=O)Nc2cccc(C(F)(F)F)c2)ccc1Cl`, the activity change (PNC), negative = inhibition was active: -97.7%. In the case of `COc1cc(/C=N/NC(=O)C(=O)/C=C2\NC3(CCCC3)Cc3ccccc32)ccc1O`, the activity change (PNC), negative = inhibition was inactive: 16.5%. In the case of `COc1ccc2cc(/C=N/NC(=O)c3ccc(CN(c4cccc(Cl)c4Cl)S(C)(=O)=O)cc3)c(Cl)nc2c1`, the activity change (PNC), negative = inhibition was inconclusive: -30.4%. In the case of `O=C(CSc1nc2nc3c(cc2c(=O)n1-c1ccccc1)CCCC3)Nc1cccc2ccccc12`, the activity change (PNC), negative = inhibition was inactive: 18.2%. In the case of `CCOc1ccccc1-c1ccc(C(=O)NCc2ccccc2)o1`, the activity change (PNC), negative = inhibition was inactive: 47.2%. With `O=C(NCCN1CCOCC1)/C(=C\c1ccc(Br)cc1)NC(=O)c1cccs1` the activity change (PNC), negative = inhibition was inconclusive: -35.7%. In the case of `CC1=NN(c2ccc(C(F)(F)F)cn2)C(=O)C1`, the activity change (PNC), negative = inhibition was inactive: 12.6%. For `COC(=O)c1ccc(NC(=O)Nc2ccc(C)cc2)cc1`, the activity change (PNC), negative = inhibition was inconclusive: -38.6%. For `O=C(COC(=O)c1cc[n+]([O-])cc1)Nc1ccc(F)c([N+](=O)[O-])c1`, the activity change (PNC), negative = inhibition was inconclusive: -45.3%. For `COc1ccc(N(C(=O)C(C)C)S(=O)(=O)c2cccc3cccnc23)cc1`, the activity change (PNC), negative = inhibition was inconclusive: -42.2%. In the case of `COc1ccc(C(=O)C(OC(=O)CNC(=O)c2ccco2)c2ccccc2)cc1` (stereo not given), the activity change (PNC), negative = inhibition was inactive: 7.02%. In the case of `CCOC(=O)C1=C(CSc2nc(-c3ccccc3)ccc2C#N)OC(N)=C(C#N)C1c1ccccc1` (stereo not given), the activity change (PNC), negative = inhibition was inconclusive: -55.9%. In the case of `S=c1[nH]nc(-c2ccco2)n1C1CCCCC1`, the activity change (PNC), negative = inhibition was active: -84.7%. In the case of `CC(C)C(c1nnnn1C1CCCC1)N1CCCc2ccccc21` (stereo not given), the activity change (PNC), negative = inhibition was active: -100%.
